Measurements: PMC11480360
These are yes or no findings as the source states them, for the method shown. In cells and extracts the contact can be indirect. Binding can be weak; no strength is given.

Biological target: T1, TAK1 (transforming growth factor-β activated kinase 1), endogenous in neonatal rat cardiomyocytes (rat (endogenous in NRCMs)) (UniProt P0C8E4)
T1 sequence: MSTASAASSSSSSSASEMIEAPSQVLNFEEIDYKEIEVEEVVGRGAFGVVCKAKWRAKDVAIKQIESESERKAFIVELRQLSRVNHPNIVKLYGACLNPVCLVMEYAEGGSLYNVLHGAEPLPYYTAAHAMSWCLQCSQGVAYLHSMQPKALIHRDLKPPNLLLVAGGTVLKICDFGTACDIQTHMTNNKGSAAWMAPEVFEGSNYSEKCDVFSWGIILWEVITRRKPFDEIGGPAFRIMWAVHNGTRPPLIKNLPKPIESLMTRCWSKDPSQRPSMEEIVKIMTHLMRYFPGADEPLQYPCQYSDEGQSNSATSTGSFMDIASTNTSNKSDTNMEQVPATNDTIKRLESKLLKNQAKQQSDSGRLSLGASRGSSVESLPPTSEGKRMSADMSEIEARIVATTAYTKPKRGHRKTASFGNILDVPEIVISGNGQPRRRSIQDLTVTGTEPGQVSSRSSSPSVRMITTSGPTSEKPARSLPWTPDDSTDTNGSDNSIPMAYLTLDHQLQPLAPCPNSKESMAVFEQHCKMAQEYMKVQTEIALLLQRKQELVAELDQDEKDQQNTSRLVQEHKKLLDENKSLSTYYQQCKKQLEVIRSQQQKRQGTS
Test: co-IP; endogenous co-IP in NRCMs after doxorubicin treatment

In the case of “TRAF3 (TNF receptor associated factor 3), endogenous in neonatal rat cardiomyocytes”, the binding is reported as “binds”.
